{"sequences": {"note": "Sequences of proteins named here, by UniProt entry; tags and fusion partners are left off.", "UniProt P0DMV8": "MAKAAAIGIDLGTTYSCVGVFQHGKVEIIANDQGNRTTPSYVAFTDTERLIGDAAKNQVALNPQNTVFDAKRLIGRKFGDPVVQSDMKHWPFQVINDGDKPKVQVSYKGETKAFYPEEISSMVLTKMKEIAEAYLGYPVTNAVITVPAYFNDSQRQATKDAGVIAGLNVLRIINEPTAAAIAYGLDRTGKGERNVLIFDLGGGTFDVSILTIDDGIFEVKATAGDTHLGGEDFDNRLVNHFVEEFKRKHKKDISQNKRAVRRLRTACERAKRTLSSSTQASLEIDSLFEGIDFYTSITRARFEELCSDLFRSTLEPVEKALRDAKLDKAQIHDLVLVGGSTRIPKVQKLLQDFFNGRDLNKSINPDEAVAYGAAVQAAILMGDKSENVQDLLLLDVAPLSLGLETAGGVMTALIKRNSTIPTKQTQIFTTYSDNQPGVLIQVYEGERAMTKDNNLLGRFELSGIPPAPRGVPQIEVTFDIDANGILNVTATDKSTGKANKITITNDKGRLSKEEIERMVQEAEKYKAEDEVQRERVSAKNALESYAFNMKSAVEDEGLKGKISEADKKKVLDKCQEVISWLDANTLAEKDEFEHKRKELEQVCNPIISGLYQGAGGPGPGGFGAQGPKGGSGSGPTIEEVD"}, "source": "paper PMC9101110", "target": "HSPA1A, N-terminal NanoLuc fusion (UniProt P0DMV8)", "test": "FRET or BRET; NanoBRET in cotransfected HEK293 cells, white 96-well plates; NanoLuc fusions of PSD95 or HSPA1A (donor, 460 nm) and HaloTag fusions of ARC (acceptor, with or without NanoBRET HaloTag 618 ligand, 620 nm); BRET as the ratio 620/460 nm", "note": "No constants are given. Whether binding was seen depends on the method and setting. Binding seen in cells or lysates may run through a third protein. Some results given as binding are weak or reduced against the parent protein; the word gives no strength. Tags and fused reporters may be left off the sequences shown."}
{"binder": "activity-regulated cytoskeleton-associated protein (ARC), wild type, N-terminal HaloTag fusion (protein, UniProt Q7LC44 1-396) MELDHRTSGGLHAYPGPRGGQVAKPNVILQIGKCRAEMLEHVRRTHRHLLAEVSKQVERELKGLHRSVGKLESNLDGYVPTSDSQRWKKSIKACLCRCQETIANLERWVKREMHVWREVFYRLERWADRLESTGGKYPVGSESARHTVSVGVGGPESYCHEADGYDYTVSPYAITPPPAAGELPGQEPAEAQQYQPWVPGEDGQPSPGVDTQIFEDPREFLSHLEEYLRQVGGSEEYWLSQIQNHMNGPAKKWWEFKQGSVKNWVEFKKEFLQYSEGTLSREAIQRELDLPQKQGEPLDQFLWRKRDLYQTLYVDADEEEIIQYVVGTLQPKLKRFLRHPLPKTLEQLIQRGMEVQDDLEQAAEPAGPHLPVEDEAETLTPAPNSESVASDRTQPE", "values": [{"measurement": "binding", "value": "binds"}]}
